Data reported in patent US8889745B2 (Nanunanu Ltd., priority 2006, dated 2014).
At least one structure is not confirmed: it was looked up by name or label, or the drawing left a doubt.

Assay: Release of dexamethasone from loaded fibrous calcium pyrophosphate particles
Type: physicochemical

With C[C@@H]1C[C@H]2[C@@H]3CCC4=CC(=O)C=C[C@]4(C)[C@@]3(F)[C@@H](O)C[C@]2(C)[C@@]1(O)C(=O)CO [dexamethasone] the “dissolution of free (unloaded) dexamethasone” value (free dexamethasone, not loaded in particles) was “dissolved completely within a few minutes”, the dexamethasone released (in 5 hours, oleic acid combined with the drug at a 4.4:1 ratio) was 60% and the “initial release of dexamethasone” value (oleic acid combined with the drug at a 4.4:1 ratio) was 30%. The dexamethasone released (within 4 minutes, 1 weight percent loading in particles, no surfactant) was “About 65%”.
